Patent JP2011097869A
These are yes or no findings as the source states them, for the method shown. Some binding calls cover weakened binding; strength is not graded here.

Chains of the proteins cited; added tags and fusions are not shown. Residues count along the entry.
UniProt P29274, residues 1-316: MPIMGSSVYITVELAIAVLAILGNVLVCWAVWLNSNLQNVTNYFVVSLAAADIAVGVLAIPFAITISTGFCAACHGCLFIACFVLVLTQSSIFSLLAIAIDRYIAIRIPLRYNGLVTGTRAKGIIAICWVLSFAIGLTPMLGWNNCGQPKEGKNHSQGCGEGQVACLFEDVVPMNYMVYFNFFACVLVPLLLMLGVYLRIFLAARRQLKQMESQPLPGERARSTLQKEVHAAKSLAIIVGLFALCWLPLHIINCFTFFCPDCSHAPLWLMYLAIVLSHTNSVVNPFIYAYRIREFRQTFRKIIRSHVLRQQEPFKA

Biological target: ヒト由来A2a受容体 (human adenosine A2a receptor, recombinantly expressed in methylotrophic yeast, purified preparation) (human) (UniProt P29274)
Assay: summary of Examples 2 and 3 (ELISA, SPR, ligand binding)

binding: binds
B1: C2831-104 (antibody, V domains shown)
VH: EVQLQQSGAELVKPGASAKISCKASGYSFTGYNMNWVKQSRGKSLEWIGNINSYFGSTNYNQKFKGKATLTVDKSSSTAYMQLNGLTSEDSAVYYCTREGNYYDGSYVRYFDYWGQGTTLTVSS
VL: DIQMTQSPASLSASVGETVTITCRASEDIYSSLAWYQQRQGKSPQLLVYATTHLADGVPSRFSGSGSGTQFSLKINSLQPEDFGNYYCQHFYGTTWTFGGGTRLEIKR
